Laboratory results taken from publication PMC12598616, “Design and optimization of caspase-1-responsive fluorescent probes for pyroptosis imaging and anti-pyroptosis drug screening” (Chemical Science, 2025).

Tested on: THP-1 cells
Experiment: Subcellular localization of FPy1 (co-staining)
Assay type: cell-based
Details: FPy1 5 μM, LPS 1 μg/mL and Nig 10 μM

–FLTDG– [FPy1, RhoB donor, hNR quencher]
Pearson's correlation coefficient, endoplasmic reticulum (ER-Tracker Green): 0.4448 | intracellular distribution: predominantly exhibited a diffuse intracellular distribution | Pearson's correlation coefficient, Golgi apparatus (Golgi-Tracker Green): 0.4320 | Pearson's correlation coefficient, lysosomes (Lyso-Tracker Green): 0.5682 | Pearson's correlation coefficient, mitochondria (Mito-Tracker Green): 0.4954
